This is one part of the list.

Amino acid sequences for entries named in this document (tags omitted).
UniProt Q0JBA9, entry or part of it: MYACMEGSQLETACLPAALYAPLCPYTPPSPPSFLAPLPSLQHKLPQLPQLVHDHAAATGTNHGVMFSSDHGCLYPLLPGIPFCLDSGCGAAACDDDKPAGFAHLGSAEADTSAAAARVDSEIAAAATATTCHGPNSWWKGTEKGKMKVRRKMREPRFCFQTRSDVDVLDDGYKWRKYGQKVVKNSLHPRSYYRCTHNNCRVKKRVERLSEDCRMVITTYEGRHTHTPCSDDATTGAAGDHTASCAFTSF

This test has as its target OsWRKY34 (Oryza sativa, UniProt Q0JBA9 1-250). Kind of test: protein-binding microarray (RPBM); PBS, 2% BSA, 51.3 ng/ul salmon testes DNA, 50 uM zinc acetate, 200 nM TF, 25 C, 1 h; high values mean tight binding. Particulars: protein: recombinant; tags: N-terminal polyhistidine and DsRed monomer fusion (pET32a); label: CyDye5-dUTP incorporated in the synthesized complementary strand; 3' TTTTT single-stranded linker to array surface; dsDNA, one strand shown. In outline:
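Per-feature fluorescence intensity (arbitrary units), read on an Axon 4000B scanner, is the binding signal. Transcription factors carrying an N-terminal polyhistidine tag and DsRed fusion were expressed in E. coli BL21-CodonPlus and purified on Ni–NTA. A custom Agilent array, made double-stranded by primer extension with Cy5-dUTP and blocked with 2% BSA, was incubated with 200 nM protein in PBS, 2% BSA, salmon testes DNA and 50 µM zinc acetate at 25 °C for 1 h and then washed.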
For the sequence “GATGGCTTCGATTTGCTGTGTTACTTCTTTTTTCTAGTTTCGGAGTCACCTAGTGCAG”, the binding signal was 16900 fluorescence intensity (a.u.). For the sequence “GGTTTCTGTGTCCAACGTTTGACCATCCGTCTTATTTGAACGGAGTCACCTAGTGCAG”, the binding signal was 8040 fluorescence intensity (a.u.). With “GAATGTTATGTAATTGGGTCGGATTGGTATGCATATTGAGCGGAGTCACCTAGTGCAG”, the binding signal was 8740 fluorescence intensity (a.u.). As for “GGAAGACCAACCCCACGGCCATTTCTCCACGCAACCAAACCGGAGTCACCTAGTGCAG”, the binding signal is 8830 fluorescence intensity (a.u.). Take “GCAAGGTGTACCCGCAGTTCTCACGGTTACCACCATTTTCCGGAGTCACCTAGTGCAG”: the binding signal is 8430 fluorescence intensity (a.u.). Turning to “GGGGTTTGTTGTATTGAATGAATGAACTTCCAGCTTTGCCCGGAGTCACCTAGTGCAG”, the binding signal is 8300 fluorescence intensity (a.u.).

As to “GATGGCGTGGTGGGTATAGTTCTCCTCCCGTCGTCGACGCCGGAGTCACCTAGTGCAG”, the binding signal was 9360 fluorescence intensity (a.u.). In the case of “GCTGAACATCAAATTCCATTATTATAGCATCCATGTCCATCGGAGTCACCTAGTGCAG” it was 8500 fluorescence intensity (a.u.); in that of “ATTGGAGCTGTGTTGACCCAAAATGGACACCCAATTGCCTCGGAGTCACCTAGTGCAG”, 8920 fluorescence intensity (a.u.); in that of “TTGCTGTCTATGTGAATTTCCCTCTGCTGTTGCTGTTTATCGGAGTCACCTAGTGCAG”, 9520 fluorescence intensity (a.u.). Turning to “CCCCACCCAGCGTCTCTTCTCTTCTCTTCTTTTTTATTGCCGGAGTCACCTAGTGCAG”, the binding signal was 8640 fluorescence intensity (a.u.).

In the case of “AATTGTATTTCTATATGGACTCTATACTCTACTTCTAATACGGAGTCACCTAGTGCAG”, the binding signal was 8450 fluorescence intensity (a.u.).

As to “CAATCTTGGGTGGCAACTGATTTGGCTGGTTCTTTTTGTTCGGAGTCACCTAGTGCAG”, the binding signal is 9160 fluorescence intensity (a.u.). Turning to “AATACAATAGTTTTTCTGCACCATGCCTGATCACATATTCCGGAGTCACCTAGTGCAG”, the binding signal is 8040 fluorescence intensity (a.u.). Take “TCTGTCCCTCAATCCCGCGACGCCGCCGCCGTTCTGCTCCCGGAGTCACCTAGTGCAG”: the binding signal was 10000 fluorescence intensity (a.u.). In the case of “TTACCCGTGCGGCTCCTCGTGTCGGACCCCATGACCGGCGCGGAGTCACCTAGTGCAG” it was 8990 fluorescence intensity (a.u.); in that of “TTTGCGGGTGGAGTTTTTTAAGTTTTTGGATTTCCTGTTTCGGAGTCACCTAGTGCAG”, 11700 fluorescence intensity (a.u.); in that of “GCTCCAGATCATCGTGCACAGCCAGCACCACCACGGCCGGCGGAGTCACCTAGTGCAG”, 8500 fluorescence intensity (a.u.). With “ATGTGGTAGTTCCTGTAAAGATTTAGTCAACGTATGTGGTCGGAGTCACCTAGTGCAG”, the binding signal is 11000 fluorescence intensity (a.u.). Take “AAAGCACCTCTACCTACAGTCTTCGCGTGTACTCTTATACCGGAGTCACCTAGTGCAG”: the binding signal is 12700 fluorescence intensity (a.u.). Consider “CATGTGAGAAAAGTCAACGGCGTCATCTATTAAAAAACGGCGGAGTCACCTAGTGCAG”, for which the binding signal is 9950 fluorescence intensity (a.u.). In the case of “GGATGTTGAAAACCGGTAGACCGGCGCGGGGTGGGAGTCGCGGAGTCACCTAGTGCAG” it was 10000 fluorescence intensity (a.u.). Then “GCACCACATCGCTTCCGGCCGTGCCAGTCACGCCCGTGCTCGGAGTCACCTAGTGCAG”, with 9200 fluorescence intensity (a.u.).

The values above are taken from PMC7819943, “Rice protein-binding microarrays: a tool to detect cis-acting elements near promoter regions in rice”.
